Source: patent publication US20120276102A1
Residue numbers refer to the chain shown, from its start. These are yes or no findings as the source states them, for the method shown. Some entries that bind do so weakly or less than the wild type. Each block holds one binder with its values, some of them ahead of it.

Sequences of proteins named here, by UniProt entry; tags and fusion partners are left off. A change or cut given only in a name is not applied to a line headed by its entry. A line that says so, or that is headed by a name, gives the form on record, which may keep a tag or linker.
UniProt Q9HBE5: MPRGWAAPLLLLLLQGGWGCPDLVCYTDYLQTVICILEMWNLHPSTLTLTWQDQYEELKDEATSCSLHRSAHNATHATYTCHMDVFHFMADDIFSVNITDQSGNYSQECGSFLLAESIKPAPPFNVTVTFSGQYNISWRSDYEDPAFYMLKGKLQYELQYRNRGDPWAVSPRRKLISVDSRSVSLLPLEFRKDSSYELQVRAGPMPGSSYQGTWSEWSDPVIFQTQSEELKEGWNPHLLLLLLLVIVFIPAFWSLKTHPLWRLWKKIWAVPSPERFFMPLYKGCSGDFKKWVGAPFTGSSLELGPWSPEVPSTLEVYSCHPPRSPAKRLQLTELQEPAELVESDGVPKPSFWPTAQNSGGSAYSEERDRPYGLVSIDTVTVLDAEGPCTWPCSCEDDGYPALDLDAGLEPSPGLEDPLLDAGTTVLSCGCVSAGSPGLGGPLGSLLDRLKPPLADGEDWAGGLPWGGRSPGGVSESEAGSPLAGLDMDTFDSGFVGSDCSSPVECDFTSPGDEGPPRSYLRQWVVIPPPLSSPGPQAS
cynomolgus monkey IL-21R expressed on cells (G7Q0S8, form named): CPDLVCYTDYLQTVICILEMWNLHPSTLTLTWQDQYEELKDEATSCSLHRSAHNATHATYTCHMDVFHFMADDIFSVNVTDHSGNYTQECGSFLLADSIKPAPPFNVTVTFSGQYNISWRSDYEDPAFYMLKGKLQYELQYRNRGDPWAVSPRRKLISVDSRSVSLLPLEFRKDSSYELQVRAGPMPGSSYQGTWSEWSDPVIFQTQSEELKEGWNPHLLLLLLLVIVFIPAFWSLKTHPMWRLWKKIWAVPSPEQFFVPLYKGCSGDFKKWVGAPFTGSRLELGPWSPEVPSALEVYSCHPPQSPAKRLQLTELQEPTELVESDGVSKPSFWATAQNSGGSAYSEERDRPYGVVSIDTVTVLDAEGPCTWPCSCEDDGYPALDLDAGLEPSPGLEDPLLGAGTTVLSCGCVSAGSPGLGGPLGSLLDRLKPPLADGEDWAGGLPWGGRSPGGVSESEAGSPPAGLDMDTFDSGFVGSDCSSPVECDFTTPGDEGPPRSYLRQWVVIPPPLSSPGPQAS
cynomolgus monkey IL-21R-His/FLAG (G7Q0S8, form named): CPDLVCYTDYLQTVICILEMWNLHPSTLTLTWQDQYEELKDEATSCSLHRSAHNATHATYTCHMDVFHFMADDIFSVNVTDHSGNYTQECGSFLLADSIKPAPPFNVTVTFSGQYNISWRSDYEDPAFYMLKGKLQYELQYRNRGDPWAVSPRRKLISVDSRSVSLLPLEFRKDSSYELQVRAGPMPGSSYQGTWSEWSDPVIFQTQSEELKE
UniProt Q9JHX3: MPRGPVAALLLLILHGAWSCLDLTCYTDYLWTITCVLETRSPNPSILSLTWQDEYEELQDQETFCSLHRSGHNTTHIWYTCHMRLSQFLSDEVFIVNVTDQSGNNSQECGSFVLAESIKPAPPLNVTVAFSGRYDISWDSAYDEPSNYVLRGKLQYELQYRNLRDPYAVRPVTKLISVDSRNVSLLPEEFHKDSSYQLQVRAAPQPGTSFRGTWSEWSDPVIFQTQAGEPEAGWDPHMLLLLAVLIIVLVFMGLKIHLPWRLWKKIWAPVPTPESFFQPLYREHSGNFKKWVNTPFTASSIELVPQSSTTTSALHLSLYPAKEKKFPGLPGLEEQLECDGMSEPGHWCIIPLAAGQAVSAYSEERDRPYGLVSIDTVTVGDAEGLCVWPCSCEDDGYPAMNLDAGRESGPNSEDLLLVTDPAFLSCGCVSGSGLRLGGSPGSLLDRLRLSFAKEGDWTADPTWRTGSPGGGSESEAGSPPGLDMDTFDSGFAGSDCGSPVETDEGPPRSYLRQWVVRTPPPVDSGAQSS

Assays:
[1] = target: human IL-21R expressed on cells (human) (UniProt Q9HBE5); test: cell ELISA, CHO cells
[2] = target: cynomolgus monkey IL-21R expressed on cells (cynomolgus monkey) (UniProt G7Q0S8); test: cell ELISA, CHO cells
[3] = target: murine IL-21R extracellular domain His-Flag fusion protein (murine) (UniProt Q9JHX3); test: SPR, Ab captured, 50 nM analyte
[4] = target: cynomolgus monkey IL-21R expressed on cells (cynomolgus monkey) (UniProt G7Q0S8); test: cell-based ELISA on CHO cells transiently expressing cynomolgus monkey IL-21R; HRP anti-human IgG, A450
[5] = target: human IL-21R expressed on cells (human) (UniProt Q9HBE5); test: cell-based ELISA on CHO cells transiently expressing human IL-21R; HRP anti-human IgG, A450
[6] = target: murine IL-21R extracellular domain His-Flag fusion protein (murine) (UniProt Q9JHX3); test: BIACORE: antibody captured on anti-human IgG; 10-500 nM murine IL-21R-H/F injected
[7] = target: murine IL-21R extracellular domain His-Flag fusion protein (murine) (UniProt Q9JHX3); test: BIACORE: antibody captured on anti-human IgG; 50 nM murine IL-21R-H/F injected
[8] = target: human IL-21R extracellular domain His-Flag fusion protein (human) (UniProt Q9HBE5); test: BIACORE: antibody captured on anti-human IgG; 0-100 nM human IL-21R-H/F injected
[9] = target: murine IL-21R extracellular domain His-Flag fusion protein (murine) (UniProt Q9JHX3); test: SPR, antibody immobilized, 100 nM receptor
[10] = target: human IL-21R extracellular domain His-Flag fusion protein (human) (UniProt Q9HBE5); test: SPR, antibody immobilized
[11] = target: cynomolgus monkey IL-21R-His/FLAG (cynomolgus monkey) (UniProt G7Q0S8); test: BIACORE: antibody captured on anti-human IgG; varying concentrations of cynomolgus monkey IL-21R-His/FLAG injected
[12] = target: human IL-21R extracellular domain His-Flag fusion protein (human) (UniProt Q9HBE5); test: BIACORE: antibody captured on anti-human IgG; varying concentrations of human IL-21R-His/FLAG injected
[13] = target: murine IL-21R extracellular domain His-Flag fusion protein (murine) (UniProt Q9JHX3); test: ELISA: biotinylated mIL-21R-His/FLAG captured on plate-bound AbT, vehicle instead of mIL-21, HRP-streptavidin, A450
[14] = target: human IL-21R extracellular domain His-Flag fusion protein (human) (UniProt Q9HBE5); test: BIACORE: AbT immobilized on the chip (as printed on the sheet); human IL-21R-H/F flowed over
[15] = target: human IL-21R extracellular domain His-Flag fusion protein (human) (UniProt Q9HBE5); test: SPR, Ab captured on anti-human IgG
[16] = target: cynomolgus monkey IL-21R-His/FLAG (cynomolgus monkey) (UniProt G7Q0S8); test: SPR, Ab captured on anti-human IgG

B1: AbL (antibody, IgG1, V domains shown)
VH: QVQLQESGPGLVKPSETLSLTCAVSGYSISSGYYWGWIRQPPGKGLEWIGSISHTGNTYYNPPLKSRVTISVDTSKNQFSLKLSSVTAADTAVYYCARFMGFGRPEYWGQGTLVTVSS
VL: SSELTQDPAVSVALGQTVRITCQGDSLRTYYASWYQQKPGQAPVLVIYGKHKRPSGIPDRFSGSSSGNTASLTITGAQAEDEADYYCVTRNRYGNPHVLFGGGTQLTVL
binding [1]: binds
binding [2]: binds
binding [3]: binds
binding [4]: binds
binding [5]: binds

B2: AbE (antibody, IgG1, V domains shown)
VH: B1 VH with F99G, M100G, F102I, G103S
VL: B1 VL with V88M, T89A, N91S, Y93K
binding [1]: binds
binding [2]: binds
binding [3]: binds
binding [4]: binds
binding [5]: binds

B3: AbC (antibody, IgG1, V domains shown)
VH: B1 VH with F99G, M100G, F102I, G103S
VL: B1 VL with V88S, T89S, N91S, Y93H
binding [1]: binds
binding [2]: binds
binding [3]: binds
binding [4]: binds
binding [5]: binds

B5: AbI (antibody, IgG1, V domains shown)
VH: B1 VH with F99G, M100G, F102I, G103S
VL: B1 VL with V88I, T89A, N91S, R92N, Y93K
binding [1]: binds
binding [2]: binds
binding [3]: binds
binding [4]: binds
binding [5]: binds

B6: AbP (antibody, human IgG1, V domains shown)
VH: B1 VH with F99G, M100G, F102I, G103S
VL: B1 VL with T89S, N91S, R92A, Y93K
binding [1]: binds
binding [2]: binds
binding [3]: binds
binding [6]: binds
binding [4]: binds
binding [5]: binds
binding [7]: binds
binding [8]: binds

B8: parental 18A5 antibody (antibody, V domains shown)
VH: B1 VH with P14T, F99G, M100G, F102I, G103S, Q110K
VL: SSELTQDPPVSVALGQTVTLTCQGDSLRTYYASWYQQKSGQAPILLLYGKHKRPSGIPDRFSGSTSGDTASLTITGAQAEDEADYYCNSRDSSGNPHVLFGGGTQLTVL
binding [3]: binds
binding [6]: binds
binding [4]: binds
binding [9]: binds
binding [5]: binds
binding [8]: binds

B13: AbJ (antibody, IgG1, V domains shown)
VH: B1 VH
VL: B1 VL with V88N, T89S, N91D, R92S, Y93S
binding [1]: binds
binding [2]: binds
binding [3]: binds
binding [4]: binds
binding [5]: binds

B14: AbK (antibody, IgG1, V domains shown)
VH: B1 VH
VL: B1 VL with T89S, N91A, R92V, Y93V
binding [1]: binds
binding [2]: binds
binding [3]: binds
binding [4]: binds
binding [5]: binds

B15: AbH (antibody, IgG1, V domains shown)
VH: B1 VH with F99G, M100G, F102I, G103S
VL: B1 VL with T89A, N91A, R92V, Y93R
binding [1]: binds
binding [2]: binds
binding [3]: binds
binding [4]: binds
binding [5]: binds

B17: AbF (antibody, IgG1, V domains shown)
VH: B1 VH with F99G, M100G, F102I, G103S
VL: B1 VL with V88S, N91S, Y93K
binding [1]: binds
binding [2]: binds
binding [3]: binds
binding [4]: binds
binding [5]: binds

B19: AbO (antibody, human IgG1, V domains shown)
VH: B1 VH with F99G, M100G, F102I, G103S
VL: B1 VL with N91S, R92A, Y93K
binding [1]: binds
binding [2]: binds
binding [3]: binds
binding [6]: binds
binding [4]: binds
binding [5]: binds
binding [7]: binds
binding [8]: binds

The remaining lines, values ahead:

binding [1]: binds
binding [2]: binds
binding [3]: binds
binding [6]: binds
binding [4]: binds
binding [5]: binds
binding [7]: binds
binding [8]: binds
B4: AbR (antibody, human IgG1, V domains shown)
VH: B1 VH
VL: B1 VL with N91S, R92V, Y93K

binding [1]: binds
binding [2]: binds
binding [3]: binds
binding [4]: binds
binding [5]: binds
B7: AbG (antibody, IgG1, V domains shown)
VH: B1 VH with F99G, M100G, F102I, G103S
VL: B1 VL with N91S, R92V, Y93K

binding [1]: binds
binding [2]: binds
binding [3]: binds
binding [6]: binds
binding [4]: binds
binding [5]: binds
binding [7]: binds
binding [8]: binds
B9: AbQ (antibody, human IgG1, V domains shown)
VH: B1 VH
VL: B1 VL with T89A, N91S, R92V, Y93V

binding [1]: binds
binding [2]: binds
binding [3]: binds
binding [4]: binds
binding [5]: binds
B10: AbA (antibody, V domains shown)
VH: B1 VH with F99G, M100G, F102I, G103S
VL: B1 VL with T89A, N91S, R92V, Y93V

binding [1]: binds
binding [2]: binds
binding [3]: binds
binding [4]: binds
binding [5]: binds
B11: AbD (antibody, IgG1, V domains shown)
VH: B1 VH with F99G, M100G, F102I, G103S
VL: B1 VL

binding [1]: binds
binding [2]: binds
binding [3]: binds
binding [6]: binds
binding [4]: binds
binding [5]: binds
binding [7]: binds
binding [8]: binds
B12: AbU (antibody, human IgG1, V domains shown)
VH: B1 VH with F99G, M100G, F102I, G103S
VL: B1 VL with V88T, N91S, R92N, Y93K

binding [10]: binds
binding [1]: binds
binding [2]: binds
binding [11]: binds
binding [3]: binds
binding [6]: binds
binding [4]: binds
binding [12]: binds
binding [13]: binds
binding [9]: binds
binding [5]: binds
binding [14]: binds
binding [15]: binds
binding [16]: binds
binding [7]: binds
binding [8]: binds
B16: AbT (antibody, human IgG1, V domains shown)
VH: B1 VH with F99G, M100G, F102I, G103S
VL: B1 VL with T89A, N91S, R92N, Y93K

binding [1]: binds
binding [2]: binds
binding [3]: binds
binding [4]: binds
binding [5]: binds
B18: AbB (antibody, IgG1, V domains shown)
VH: B1 VH with F99G, M100G, F102I, G103S
VL: B1 VL with T89S, N91A, R92V, Y93V
